Publication PMC3553015 (2013)
No constants are given. Whether binding was seen depends on the method and setting. Binding seen in cells or lysates may run through a third protein. Some results given as binding are weak or reduced against the parent protein; the word gives no strength.

Protein sequences, listed by entry. Tags and fused reporters are not part of them. Lines headed by an entry give the natural chain unless they say otherwise; changes in a name come on top.
UniProt P84091: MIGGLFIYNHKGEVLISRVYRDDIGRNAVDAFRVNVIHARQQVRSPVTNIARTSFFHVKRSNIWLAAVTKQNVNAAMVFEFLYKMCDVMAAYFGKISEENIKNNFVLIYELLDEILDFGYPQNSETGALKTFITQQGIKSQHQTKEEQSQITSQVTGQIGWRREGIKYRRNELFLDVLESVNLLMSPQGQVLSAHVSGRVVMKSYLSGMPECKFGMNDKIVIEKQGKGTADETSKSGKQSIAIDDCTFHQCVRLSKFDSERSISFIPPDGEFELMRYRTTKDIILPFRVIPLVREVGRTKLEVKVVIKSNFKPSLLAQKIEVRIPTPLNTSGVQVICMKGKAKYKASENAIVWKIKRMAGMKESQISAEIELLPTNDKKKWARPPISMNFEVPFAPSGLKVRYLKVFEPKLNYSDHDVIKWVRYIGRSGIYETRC
UniProt P11911: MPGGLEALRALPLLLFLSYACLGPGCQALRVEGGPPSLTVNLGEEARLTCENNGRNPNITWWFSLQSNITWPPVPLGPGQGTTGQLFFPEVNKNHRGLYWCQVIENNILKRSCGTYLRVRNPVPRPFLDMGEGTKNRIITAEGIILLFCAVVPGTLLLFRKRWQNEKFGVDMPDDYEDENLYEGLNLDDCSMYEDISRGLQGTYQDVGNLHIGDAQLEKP
UniProt P15530: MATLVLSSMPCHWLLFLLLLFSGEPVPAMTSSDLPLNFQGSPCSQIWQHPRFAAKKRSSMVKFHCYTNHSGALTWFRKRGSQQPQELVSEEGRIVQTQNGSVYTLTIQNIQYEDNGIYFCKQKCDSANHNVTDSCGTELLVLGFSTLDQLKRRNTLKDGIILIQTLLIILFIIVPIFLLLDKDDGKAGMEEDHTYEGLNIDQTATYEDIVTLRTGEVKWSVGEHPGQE

Target: biotin-labeled AP2µ (murine) (UniProt P84091)
Assay: pull-down; competitive inhibition: synthetic peptide (250 µM final) mixed with in vitro translated AP2µ-btn for 30 minutes, then added to glutathione-immobilised GST–[SDYQRL]3 for 30 minutes; percent inhibition taken as read-out of peptide binding to AP2µ-btn; only the binder purified

| Binder | binding |
| --- | --- |
| SMYEDISMYEDISMYEDI (peptide, UniProt P11911 191-196; P11911 191-196; P11911 191-196) [18-mer peptide [xxYxxØ]3 of the CD79a YxxØ motif centered on Y193] | binds |
| GTYQDVGTYQDVGTYQDV (peptide, UniProt P11911 202-207; P11911 202-207; P11911 202-207) [18-mer peptide [xxYxxØ]3 of the CD79a YxxØ motif centered on Y204] | binds |
| NLYEGLNLYEGLNLYEGL (peptide, UniProt P11911 180-185; P11911 180-185; P11911 180-185) [18-mer peptide [xxYxxØ]3 of the membrane proximal YxxØ motif of CD79a (Y182)] | no binding (tested: 250 µM) |
| ATYEDIATYEDIATYEDI (peptide, UniProt P15530 204-209; P15530 204-209; P15530 204-209) [18-mer peptide [xxYxxØ]3 of the single downstream YxxØ motif of CD79b (Y206)] | no binding (tested: 250 µM) |
